The target of test [1] is polycystin-1 (human, RCTE cells) (human (endogenous in RCTE)) (UniProt P98161). The test is described as follows: proximity ligation; Duolink II Rabbit/Mouse Red Kit on polarized RCTE or MO6-G3 cells on coverslips, 5 days post-confluency; antibodies against PC1 (Santa Cruz mAb) and EGFR (GeneTex pAb); control without PC1 antibody negative.
For test [2] the target is unchanged. The experiment in a line: co-IP; PC1 immunoprecipitated with NM002 pAb from lysates of polarized RCTE or MO6-G3 cells (5 days post-confluency); lysis buffer 0.5% NP40, 10 mM Tris-HCl pH 7.4, 150 mM NaCl, 5 mM EDTA, 60 mM octylglucoside; 4°C; immunoblot; normal rabbit IgG as negative control. (In general: In western blotting, separated proteins are transferred to a membrane and probed.)

By UniProt entry, the sequences of proteins in these tests, tags left out. Residues count along the entry.
UniProt O08852, residues 24-4293: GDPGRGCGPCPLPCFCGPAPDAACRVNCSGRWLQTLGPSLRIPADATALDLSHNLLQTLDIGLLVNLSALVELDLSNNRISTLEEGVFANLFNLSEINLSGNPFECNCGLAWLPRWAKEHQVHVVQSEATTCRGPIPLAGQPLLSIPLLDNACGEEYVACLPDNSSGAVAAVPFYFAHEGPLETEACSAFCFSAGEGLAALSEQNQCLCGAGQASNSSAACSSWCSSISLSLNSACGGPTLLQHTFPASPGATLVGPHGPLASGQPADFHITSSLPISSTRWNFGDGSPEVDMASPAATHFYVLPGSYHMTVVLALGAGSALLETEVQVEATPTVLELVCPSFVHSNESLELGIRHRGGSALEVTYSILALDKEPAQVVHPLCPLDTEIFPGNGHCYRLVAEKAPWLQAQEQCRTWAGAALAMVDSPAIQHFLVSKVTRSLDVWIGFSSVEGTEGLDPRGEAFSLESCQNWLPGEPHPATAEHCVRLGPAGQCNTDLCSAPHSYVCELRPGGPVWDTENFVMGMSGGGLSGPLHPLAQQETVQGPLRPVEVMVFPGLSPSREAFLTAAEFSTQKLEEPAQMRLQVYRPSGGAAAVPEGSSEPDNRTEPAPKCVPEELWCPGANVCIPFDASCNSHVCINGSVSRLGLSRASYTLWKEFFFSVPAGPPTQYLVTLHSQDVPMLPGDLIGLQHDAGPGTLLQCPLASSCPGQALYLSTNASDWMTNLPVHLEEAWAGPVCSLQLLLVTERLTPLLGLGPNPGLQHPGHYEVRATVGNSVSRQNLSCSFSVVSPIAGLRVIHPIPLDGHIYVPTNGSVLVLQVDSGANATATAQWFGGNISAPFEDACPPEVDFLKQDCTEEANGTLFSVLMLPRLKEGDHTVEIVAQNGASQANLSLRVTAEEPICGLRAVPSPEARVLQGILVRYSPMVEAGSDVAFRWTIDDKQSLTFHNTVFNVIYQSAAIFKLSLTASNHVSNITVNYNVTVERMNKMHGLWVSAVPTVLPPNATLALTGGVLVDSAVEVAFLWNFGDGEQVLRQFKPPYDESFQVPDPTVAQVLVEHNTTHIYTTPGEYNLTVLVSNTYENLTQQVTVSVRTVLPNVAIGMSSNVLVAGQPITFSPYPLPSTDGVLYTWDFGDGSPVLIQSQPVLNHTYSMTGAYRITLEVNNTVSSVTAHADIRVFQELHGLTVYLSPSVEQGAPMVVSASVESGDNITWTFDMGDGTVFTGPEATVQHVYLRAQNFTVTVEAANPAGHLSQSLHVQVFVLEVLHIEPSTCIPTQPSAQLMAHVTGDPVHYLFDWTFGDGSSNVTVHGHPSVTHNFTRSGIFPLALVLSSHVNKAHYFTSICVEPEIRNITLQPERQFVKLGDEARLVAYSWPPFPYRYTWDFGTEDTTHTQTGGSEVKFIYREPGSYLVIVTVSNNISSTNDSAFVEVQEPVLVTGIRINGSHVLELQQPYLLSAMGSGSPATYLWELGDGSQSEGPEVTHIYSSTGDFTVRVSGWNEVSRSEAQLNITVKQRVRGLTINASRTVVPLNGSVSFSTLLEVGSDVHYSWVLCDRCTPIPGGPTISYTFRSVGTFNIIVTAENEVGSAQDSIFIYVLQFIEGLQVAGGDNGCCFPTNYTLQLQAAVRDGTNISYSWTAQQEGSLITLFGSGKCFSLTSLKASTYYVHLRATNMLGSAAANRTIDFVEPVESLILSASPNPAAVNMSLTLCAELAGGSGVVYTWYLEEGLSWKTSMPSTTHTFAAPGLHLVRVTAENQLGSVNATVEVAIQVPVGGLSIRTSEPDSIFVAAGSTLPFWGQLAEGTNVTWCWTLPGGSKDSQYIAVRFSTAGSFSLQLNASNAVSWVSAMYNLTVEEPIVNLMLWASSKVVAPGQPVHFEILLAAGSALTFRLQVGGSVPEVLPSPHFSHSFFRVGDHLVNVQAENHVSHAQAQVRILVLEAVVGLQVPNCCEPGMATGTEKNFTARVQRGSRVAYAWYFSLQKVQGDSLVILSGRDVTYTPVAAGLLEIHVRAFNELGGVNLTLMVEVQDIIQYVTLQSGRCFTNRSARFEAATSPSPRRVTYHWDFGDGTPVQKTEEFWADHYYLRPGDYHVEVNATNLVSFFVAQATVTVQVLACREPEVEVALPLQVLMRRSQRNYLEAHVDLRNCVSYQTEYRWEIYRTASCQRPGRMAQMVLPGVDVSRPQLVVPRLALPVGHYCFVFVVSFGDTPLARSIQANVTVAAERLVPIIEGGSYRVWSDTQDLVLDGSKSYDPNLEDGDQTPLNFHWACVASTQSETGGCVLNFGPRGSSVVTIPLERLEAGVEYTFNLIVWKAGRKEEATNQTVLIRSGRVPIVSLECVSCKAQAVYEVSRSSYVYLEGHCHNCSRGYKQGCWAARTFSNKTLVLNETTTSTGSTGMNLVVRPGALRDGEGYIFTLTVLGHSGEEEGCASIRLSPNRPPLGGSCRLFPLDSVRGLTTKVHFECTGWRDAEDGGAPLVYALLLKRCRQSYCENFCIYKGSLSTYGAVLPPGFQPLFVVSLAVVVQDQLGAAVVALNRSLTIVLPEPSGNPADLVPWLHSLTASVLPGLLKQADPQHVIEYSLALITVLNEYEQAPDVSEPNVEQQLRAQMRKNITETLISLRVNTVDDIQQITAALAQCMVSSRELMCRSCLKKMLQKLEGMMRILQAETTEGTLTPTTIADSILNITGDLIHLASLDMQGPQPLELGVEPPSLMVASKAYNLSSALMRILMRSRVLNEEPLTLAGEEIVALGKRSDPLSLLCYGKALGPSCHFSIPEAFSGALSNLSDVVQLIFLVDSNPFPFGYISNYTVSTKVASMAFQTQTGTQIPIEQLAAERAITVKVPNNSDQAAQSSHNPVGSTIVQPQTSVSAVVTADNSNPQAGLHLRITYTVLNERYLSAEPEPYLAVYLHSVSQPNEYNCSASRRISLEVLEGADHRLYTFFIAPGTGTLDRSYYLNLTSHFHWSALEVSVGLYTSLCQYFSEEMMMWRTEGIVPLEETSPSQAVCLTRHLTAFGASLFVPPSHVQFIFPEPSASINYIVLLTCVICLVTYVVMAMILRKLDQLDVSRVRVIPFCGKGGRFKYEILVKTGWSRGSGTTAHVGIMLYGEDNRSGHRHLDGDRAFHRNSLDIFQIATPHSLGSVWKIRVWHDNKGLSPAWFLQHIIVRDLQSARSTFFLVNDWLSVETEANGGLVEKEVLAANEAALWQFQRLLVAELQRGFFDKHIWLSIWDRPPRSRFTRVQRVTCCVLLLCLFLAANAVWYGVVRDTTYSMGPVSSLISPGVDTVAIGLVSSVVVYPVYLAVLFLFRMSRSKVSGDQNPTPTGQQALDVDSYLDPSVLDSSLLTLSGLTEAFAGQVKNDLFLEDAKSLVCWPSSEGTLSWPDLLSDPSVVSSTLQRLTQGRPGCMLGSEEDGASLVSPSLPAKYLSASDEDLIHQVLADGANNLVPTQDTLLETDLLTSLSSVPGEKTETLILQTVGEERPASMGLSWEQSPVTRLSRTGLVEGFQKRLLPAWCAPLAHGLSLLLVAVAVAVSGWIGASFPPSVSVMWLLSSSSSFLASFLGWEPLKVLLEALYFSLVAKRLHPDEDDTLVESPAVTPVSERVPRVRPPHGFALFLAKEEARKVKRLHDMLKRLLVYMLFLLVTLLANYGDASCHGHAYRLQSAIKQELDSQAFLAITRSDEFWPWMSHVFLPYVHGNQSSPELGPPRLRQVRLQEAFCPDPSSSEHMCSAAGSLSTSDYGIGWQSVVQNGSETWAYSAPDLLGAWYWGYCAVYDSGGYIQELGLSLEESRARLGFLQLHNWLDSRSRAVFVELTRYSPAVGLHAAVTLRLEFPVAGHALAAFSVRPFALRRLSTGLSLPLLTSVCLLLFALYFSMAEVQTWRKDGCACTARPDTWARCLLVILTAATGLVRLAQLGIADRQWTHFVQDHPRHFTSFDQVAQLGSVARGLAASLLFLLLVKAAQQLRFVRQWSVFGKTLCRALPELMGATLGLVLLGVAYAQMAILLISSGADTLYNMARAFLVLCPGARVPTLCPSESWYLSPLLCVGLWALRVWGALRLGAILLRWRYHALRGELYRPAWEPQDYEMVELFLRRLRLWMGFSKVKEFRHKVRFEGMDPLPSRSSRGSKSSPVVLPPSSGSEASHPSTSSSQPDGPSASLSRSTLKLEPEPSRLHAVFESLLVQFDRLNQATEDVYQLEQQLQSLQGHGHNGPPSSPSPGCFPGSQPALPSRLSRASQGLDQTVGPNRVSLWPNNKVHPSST

Test [3] has as its target polycystin-1 (mouse, MO6-G3 odontoblasts) (mouse (endogenous in MO6-G3)) (UniProt O08852). The experiment in a line: proximity ligation; Duolink II Rabbit/Mouse Red Kit on polarized RCTE or MO6-G3 cells on coverslips, 5 days post-confluency; antibodies against PC1 (Santa Cruz mAb) and EGFR (GeneTex pAb); control without PC1 antibody negative.
For test [4] the target is unchanged. The experiment in a line: co-IP; PC1 immunoprecipitated with NM002 pAb from lysates of polarized RCTE or MO6-G3 cells (5 days post-confluency); lysis buffer 0.5% NP40, 10 mM Tris-HCl pH 7.4, 150 mM NaCl, 5 mM EDTA, 60 mM octylglucoside; 4°C; immunoblot; normal rabbit IgG as negative control.
Test [5] has as its target epidermal growth factor receptor (human, RCTE cells) (human (endogenous in RCTE)) (UniProt P00533). The test is described as follows: co-IP; EGFR immunoprecipitated with Santa Cruz pAb from lysates of polarized RCTE or MO6-G3 cells (5 days post-confluency); lysis buffer 0.5% NP40, 10 mM Tris-HCl pH 7.4, 150 mM NaCl, 5 mM EDTA, 60 mM octylglucoside; 4°C; immunoblot; normal rabbit IgG as negative control.

Test [6] concerns the target epidermal growth factor receptor (mouse, MO6-G3 odontoblasts) (mouse (endogenous in MO6-G3)) (UniProt Q01279). The test is described as above.

These are yes or no findings as the source states them, for the method shown. In cells and extracts the contact can be indirect. Some entries that bind do so weakly or less than the wild type.

On to “epidermal growth factor receptor (human, RCTE cells) (from UniProt P00533 25-1210)”, for which the binding entry in test [1] and in test [2] was “binds” in each case.

For the substance “epidermal growth factor receptor (mouse, MO6-G3 odontoblasts) (from UniProt Q01279 25-1210)”, the binding result in test [3] and in test [4] was “binds” each time. Consider “polycystin-1 (human, RCTE cells) (from UniProt P98161 24-4303)”, for which the binding entry in test [5] is given as “binds”. For the substance “polycystin-1 (mouse, MO6-G3 odontoblasts) (from UniProt O08852 24-4293)”, in test [6], the binding result is on record as “binds”.

The record behind these values is article PMC4152239.
